Reference: US6833355
No constants are given. Whether binding was seen depends on the method and setting. For part of these data: In cells and extracts the contact can be indirect. Some entries that bind do so weakly or less than the wild type.

Sequences of proteins named here, by UniProt entry; tags and fusion partners are left off. A change or cut given only in a name is not applied to a line headed by its entry. A line that says so, or that is headed by a name, gives the form on record, which may keep a tag or linker. Residues count along the entry.
UniProt P06748: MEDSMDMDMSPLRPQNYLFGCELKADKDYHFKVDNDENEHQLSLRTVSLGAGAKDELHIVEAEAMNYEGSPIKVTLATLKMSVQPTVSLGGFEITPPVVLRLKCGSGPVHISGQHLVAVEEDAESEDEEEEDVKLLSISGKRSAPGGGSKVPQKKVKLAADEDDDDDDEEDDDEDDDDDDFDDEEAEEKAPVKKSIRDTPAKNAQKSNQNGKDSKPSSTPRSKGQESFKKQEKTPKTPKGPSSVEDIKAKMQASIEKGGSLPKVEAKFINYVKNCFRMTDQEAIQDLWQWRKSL
NH2-terminal fragment of NPM, in vitro translated and 35S-methionine-labelled: residues 1-147 of P06748
SET protein (39 kDa and 80 kDa bands of Jurkat nuclear extract) (Q01105, form named): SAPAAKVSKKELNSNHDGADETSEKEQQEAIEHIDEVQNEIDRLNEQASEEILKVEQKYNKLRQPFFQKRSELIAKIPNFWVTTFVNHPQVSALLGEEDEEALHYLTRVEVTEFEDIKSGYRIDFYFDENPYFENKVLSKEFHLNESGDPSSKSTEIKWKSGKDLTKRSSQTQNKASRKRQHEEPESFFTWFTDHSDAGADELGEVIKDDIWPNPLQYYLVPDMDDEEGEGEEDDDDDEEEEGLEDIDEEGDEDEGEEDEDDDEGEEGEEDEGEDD
UniProt P22626: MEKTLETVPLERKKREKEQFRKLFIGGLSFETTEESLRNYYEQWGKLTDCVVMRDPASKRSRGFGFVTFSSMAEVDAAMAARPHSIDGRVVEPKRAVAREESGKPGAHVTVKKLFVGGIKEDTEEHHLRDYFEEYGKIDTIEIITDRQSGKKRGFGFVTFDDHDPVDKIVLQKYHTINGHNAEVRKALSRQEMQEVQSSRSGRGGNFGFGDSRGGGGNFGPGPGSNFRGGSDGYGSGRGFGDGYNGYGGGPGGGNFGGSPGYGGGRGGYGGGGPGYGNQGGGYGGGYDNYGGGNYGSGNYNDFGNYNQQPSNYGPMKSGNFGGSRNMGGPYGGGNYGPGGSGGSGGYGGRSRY
UniProt P50470: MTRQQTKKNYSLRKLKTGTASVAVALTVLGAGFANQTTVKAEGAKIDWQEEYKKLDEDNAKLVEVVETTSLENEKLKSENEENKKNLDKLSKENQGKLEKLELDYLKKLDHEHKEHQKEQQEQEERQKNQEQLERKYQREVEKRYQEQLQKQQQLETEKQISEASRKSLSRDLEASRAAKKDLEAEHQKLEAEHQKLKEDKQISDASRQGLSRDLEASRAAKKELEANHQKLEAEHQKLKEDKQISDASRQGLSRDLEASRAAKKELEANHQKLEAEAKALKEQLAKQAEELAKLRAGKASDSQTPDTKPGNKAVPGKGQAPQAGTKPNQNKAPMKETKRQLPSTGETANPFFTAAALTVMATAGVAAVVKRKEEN

Legend:
[1] = target: nucleophosmin in nuclear extracts of Jurkat cells incubated with protein H (human) (UniProt P06748); assay: Co-immunoprecipitation from nuclear extracts with anti-protein H F(ab')2-Sepharose, then Western blot with anti-NPM
[2] = target: SET protein (39 kDa and 80 kDa bands of Jurkat nuclear extract) (human) (UniProt Q01105); assay: Summary of the Example
[3] = target: heterogeneous nuclear ribonuclear protein (hnRNP) A2/B1 (42 kDa band of Jurkat nuclear extract) (human) (UniProt P22626); assay: Summary of the Example
[4] = target: NH2-terminal fragment of NPM, in vitro translated and 35S-methionine-labelled (human) (UniProt P06748); assay: Affinity purification of 35S-labelled in vitro translated peptides on protein H-Sepharose
[5] = target: heterogeneous nuclear ribonuclear protein (hnRNP) A2/B1 (42 kDa band of Jurkat nuclear extract) (human) (UniProt P22626); assay: Jurkat nuclear extract eluted from protein H-Sepharose and blotted with 125I-protein H; the 42 kDa band was identified as hnRNP A2/B1
[6] = target: SET protein (39 kDa and 80 kDa bands of Jurkat nuclear extract) (human) (UniProt Q01105); assay: Jurkat nuclear extract eluted from protein H-Sepharose and blotted with 125I-protein H; the 39 and 80 kDa bands were identified as SET

Measured: binding

protein H of Streptococcus pyogenes, COOH-terminally truncated fragment expressed by and purified from E. coli (305 amino acids) (from UniProt P50470 42-346)
binds: all assays above
